The text below walks through data of article PMC8484013.

Sequences of proteins named here, by UniProt entry; tags and fusion partners are left off. A change or cut given only in a name is not applied to a line headed by its entry.
UniProt Q8WVD5: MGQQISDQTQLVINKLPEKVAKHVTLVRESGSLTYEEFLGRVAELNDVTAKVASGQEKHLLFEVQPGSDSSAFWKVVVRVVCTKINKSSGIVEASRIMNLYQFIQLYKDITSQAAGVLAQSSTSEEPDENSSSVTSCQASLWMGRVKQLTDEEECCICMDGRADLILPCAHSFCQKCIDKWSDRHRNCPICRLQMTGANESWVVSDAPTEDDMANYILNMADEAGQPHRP
UniProt O75608: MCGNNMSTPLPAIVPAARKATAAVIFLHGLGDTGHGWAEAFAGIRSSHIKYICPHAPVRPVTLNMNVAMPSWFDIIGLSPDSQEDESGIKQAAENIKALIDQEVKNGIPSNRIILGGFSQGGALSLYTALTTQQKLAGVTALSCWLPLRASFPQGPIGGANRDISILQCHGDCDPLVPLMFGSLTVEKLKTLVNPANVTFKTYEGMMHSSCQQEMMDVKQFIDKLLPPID

In assay [1] the target is KRAS-GST (UniProt P01116). In words: pull-down; GST pull-down in an E. coli system: purified RNF141 or 2H-RNF141 with KRAS-GST or GST; both purified.
For assay [2], the target named is RNF141 (RING finger protein 141) in colorectal cancer cells (human (endogenous in HCT116 and other CRC cell lines)) (UniProt Q8WVD5). In words: co-IP; IP from CRC cells with RNF141 antibody (mouse derived), KRAS antibody (rabbit derived) or LYPLA1 antibody, Western blot for the partner; control IgG. (In western blotting, separated proteins are transferred to a membrane and probed.)

Assay [3] addresses KRAS BiFC fusion (UniProt P01116). Briefly: split reporter; BiFC in HCT116 and HT29 cells; bJunVN173 and bFosVC155 positive control, VN173 and VC155 negative control.

No constants are given. Whether binding was seen depends on the method and setting. For some of these results: Binding seen in cells or lysates may run through a third protein. Some binding calls cover weakened binding; strength is not graded here.

For the substance “full-length RNF141, recombinant (from UniProt Q8WVD5 1-230)”, the binding result in assay [1] was “binds”. Take “LYPLA1 (Lysophospholipase1), also known as APT1 (acyl-protein thioesterase 1) (from UniProt O75608 1-230) (enzyme)”: the binding entry in assay [2] is given as “binds”. “RNF141 BiFC fusion (from UniProt Q8WVD5 1-230)”: the binding result in assay [3] was “binds”. In the case of “2H-RNF141 (RNF domain, 145-230aa) (from UniProt Q8WVD5 145-230) (domain or fragment)”, the binding result in assay [1] is listed as “no binding”.
